± gives the standard deviation of the averaged measurements. The list shows a part of the results.
Compound: Nc1nc2c(ncn2[C@@H]2O[C@H](COP(=O)(O)OP(=O)(O)OP(=O)(O)O)[C@@H](O)[C@H]2O)c(=O)[nH]1 [guanosine triphosphate]
Assay: NP40-soluble protein abundance relative to vehicle (solubility fold change) (ratio); higher = more soluble protein in presence of GTP
In short: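 Values are fold changes against the detergent-processed vehicle, based on vsn-normalised intensities. Jurkat crude lysate was treated at eight concentrations from 0.1 to 10 mM (10 min at room temperature, then 3 min at 37 °C), solubilised with 0.8% NP40 and benzonase, ultracentrifuged and analysed by TMT-labelled LC-MS/MS over three independent experiments.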

Amino acid sequences for entries named in this document (tags omitted). A change or cut given only in a name is not applied to a line headed by its entry.
UniProt Q9BUB5: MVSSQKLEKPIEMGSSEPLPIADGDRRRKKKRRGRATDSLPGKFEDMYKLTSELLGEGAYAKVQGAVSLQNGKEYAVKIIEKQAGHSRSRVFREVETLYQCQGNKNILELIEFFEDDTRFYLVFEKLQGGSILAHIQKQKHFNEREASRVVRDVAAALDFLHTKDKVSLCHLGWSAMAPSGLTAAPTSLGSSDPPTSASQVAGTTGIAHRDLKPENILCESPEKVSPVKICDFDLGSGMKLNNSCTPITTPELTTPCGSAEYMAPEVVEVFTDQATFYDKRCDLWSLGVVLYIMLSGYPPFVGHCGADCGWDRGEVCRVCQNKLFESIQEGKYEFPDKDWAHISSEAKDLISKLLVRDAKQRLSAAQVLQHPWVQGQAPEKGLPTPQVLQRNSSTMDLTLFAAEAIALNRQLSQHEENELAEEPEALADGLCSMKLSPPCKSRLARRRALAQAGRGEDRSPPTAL
UniProt Q9BV19: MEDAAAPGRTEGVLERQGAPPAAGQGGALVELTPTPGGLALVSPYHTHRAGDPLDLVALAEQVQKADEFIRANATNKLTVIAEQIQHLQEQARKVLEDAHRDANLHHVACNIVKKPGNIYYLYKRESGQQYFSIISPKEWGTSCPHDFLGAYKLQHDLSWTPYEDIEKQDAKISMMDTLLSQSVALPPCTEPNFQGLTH
UniProt Q9BW91: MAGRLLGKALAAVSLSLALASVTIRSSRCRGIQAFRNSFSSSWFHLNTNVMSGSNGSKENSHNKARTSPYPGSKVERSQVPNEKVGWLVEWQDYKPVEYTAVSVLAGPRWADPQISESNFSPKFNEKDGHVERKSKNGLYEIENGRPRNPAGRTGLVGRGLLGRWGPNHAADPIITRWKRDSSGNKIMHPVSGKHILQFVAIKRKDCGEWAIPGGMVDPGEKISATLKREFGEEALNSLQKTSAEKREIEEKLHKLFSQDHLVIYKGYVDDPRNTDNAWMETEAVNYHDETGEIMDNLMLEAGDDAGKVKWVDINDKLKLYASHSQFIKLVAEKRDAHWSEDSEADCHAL
UniProt Q96SZ5, whole entry: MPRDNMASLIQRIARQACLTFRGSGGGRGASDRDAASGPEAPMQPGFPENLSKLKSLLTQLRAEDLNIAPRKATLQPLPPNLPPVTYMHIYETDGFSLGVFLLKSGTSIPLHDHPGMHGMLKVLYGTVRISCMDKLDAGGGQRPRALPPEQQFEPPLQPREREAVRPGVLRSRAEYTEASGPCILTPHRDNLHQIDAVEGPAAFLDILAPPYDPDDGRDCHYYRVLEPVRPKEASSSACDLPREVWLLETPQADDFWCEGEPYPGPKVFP
UniProt Q9BRX5: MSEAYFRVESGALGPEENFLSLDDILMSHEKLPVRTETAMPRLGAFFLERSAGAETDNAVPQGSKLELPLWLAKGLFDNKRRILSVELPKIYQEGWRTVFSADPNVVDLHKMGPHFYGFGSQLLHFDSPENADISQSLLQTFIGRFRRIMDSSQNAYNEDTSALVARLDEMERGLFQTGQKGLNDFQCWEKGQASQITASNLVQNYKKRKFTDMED
UniProt Q9BRG1: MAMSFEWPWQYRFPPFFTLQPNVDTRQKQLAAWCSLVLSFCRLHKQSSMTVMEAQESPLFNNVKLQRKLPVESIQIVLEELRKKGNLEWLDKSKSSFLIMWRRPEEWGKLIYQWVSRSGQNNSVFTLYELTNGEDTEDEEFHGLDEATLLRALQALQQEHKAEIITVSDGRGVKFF
UniProt Q9BXW7: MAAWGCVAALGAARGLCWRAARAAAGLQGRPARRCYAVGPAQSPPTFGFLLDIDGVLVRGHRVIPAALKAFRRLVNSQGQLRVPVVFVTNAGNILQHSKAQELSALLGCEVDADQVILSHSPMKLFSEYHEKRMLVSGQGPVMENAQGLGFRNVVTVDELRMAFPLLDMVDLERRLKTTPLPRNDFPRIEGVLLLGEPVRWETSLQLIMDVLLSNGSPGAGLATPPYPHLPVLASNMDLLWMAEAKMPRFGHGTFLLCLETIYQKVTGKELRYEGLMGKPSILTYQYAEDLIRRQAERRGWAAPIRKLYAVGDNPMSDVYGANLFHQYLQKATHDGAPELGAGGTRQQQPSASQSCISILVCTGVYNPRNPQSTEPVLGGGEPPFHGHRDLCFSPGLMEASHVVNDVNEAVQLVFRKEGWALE
UniProt Q9BV44: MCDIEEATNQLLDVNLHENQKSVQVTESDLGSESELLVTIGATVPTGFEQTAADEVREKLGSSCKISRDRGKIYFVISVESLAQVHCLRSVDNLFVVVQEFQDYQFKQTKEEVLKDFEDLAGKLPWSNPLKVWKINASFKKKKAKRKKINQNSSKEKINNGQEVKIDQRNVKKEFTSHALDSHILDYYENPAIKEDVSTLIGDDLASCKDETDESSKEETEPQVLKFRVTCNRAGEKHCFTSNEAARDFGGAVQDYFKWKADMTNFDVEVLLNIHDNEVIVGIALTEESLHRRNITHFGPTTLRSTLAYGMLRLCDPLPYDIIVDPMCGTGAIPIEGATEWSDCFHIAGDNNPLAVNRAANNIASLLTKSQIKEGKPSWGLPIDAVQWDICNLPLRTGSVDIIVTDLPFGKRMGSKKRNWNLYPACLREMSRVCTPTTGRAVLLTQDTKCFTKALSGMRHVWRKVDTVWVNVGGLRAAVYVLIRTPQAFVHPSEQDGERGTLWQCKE
UniProt Q96LT9: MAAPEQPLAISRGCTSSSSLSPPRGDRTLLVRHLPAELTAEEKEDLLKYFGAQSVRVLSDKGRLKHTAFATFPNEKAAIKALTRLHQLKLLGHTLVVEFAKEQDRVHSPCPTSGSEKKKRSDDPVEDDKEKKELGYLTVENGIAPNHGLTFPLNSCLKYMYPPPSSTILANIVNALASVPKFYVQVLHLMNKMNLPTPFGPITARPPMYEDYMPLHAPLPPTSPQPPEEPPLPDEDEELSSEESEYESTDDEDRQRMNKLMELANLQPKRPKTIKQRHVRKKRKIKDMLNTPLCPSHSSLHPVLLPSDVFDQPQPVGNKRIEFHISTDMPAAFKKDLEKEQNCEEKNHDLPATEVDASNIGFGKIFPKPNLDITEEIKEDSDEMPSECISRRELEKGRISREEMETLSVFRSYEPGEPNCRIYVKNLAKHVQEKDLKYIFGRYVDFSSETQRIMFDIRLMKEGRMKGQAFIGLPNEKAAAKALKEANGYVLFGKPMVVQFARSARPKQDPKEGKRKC
UniProt Q96P16: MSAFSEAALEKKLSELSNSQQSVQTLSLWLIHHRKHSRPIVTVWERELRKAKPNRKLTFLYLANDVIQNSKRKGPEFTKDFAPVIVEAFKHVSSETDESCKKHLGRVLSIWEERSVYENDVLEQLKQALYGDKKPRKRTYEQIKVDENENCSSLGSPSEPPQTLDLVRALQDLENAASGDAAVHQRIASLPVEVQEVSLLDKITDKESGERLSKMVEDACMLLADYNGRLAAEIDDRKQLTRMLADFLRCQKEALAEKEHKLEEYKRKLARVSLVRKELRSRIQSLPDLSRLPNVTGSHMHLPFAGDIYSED
UniProt Q9BXJ9: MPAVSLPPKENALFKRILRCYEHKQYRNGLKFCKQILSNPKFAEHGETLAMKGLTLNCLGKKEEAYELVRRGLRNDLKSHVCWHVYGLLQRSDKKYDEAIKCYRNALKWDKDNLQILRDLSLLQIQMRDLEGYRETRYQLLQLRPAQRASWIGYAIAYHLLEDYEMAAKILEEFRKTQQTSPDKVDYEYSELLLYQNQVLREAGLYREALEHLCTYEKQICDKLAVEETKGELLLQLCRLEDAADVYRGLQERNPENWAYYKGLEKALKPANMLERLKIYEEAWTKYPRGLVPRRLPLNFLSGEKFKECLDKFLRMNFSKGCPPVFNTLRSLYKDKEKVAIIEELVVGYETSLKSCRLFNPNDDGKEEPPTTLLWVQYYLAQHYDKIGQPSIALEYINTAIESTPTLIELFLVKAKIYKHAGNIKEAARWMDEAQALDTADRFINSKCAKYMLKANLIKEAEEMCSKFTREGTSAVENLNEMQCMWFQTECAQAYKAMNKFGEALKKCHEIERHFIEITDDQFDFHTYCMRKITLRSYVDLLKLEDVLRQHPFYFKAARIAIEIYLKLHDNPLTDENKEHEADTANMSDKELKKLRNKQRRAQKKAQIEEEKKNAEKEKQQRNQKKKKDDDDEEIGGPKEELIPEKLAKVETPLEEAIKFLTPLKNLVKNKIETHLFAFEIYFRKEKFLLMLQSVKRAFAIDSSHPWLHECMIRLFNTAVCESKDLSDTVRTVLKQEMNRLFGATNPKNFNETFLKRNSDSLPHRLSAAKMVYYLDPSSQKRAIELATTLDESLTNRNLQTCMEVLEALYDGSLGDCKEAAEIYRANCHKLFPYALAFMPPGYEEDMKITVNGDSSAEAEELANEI
UniProt Q96KB5: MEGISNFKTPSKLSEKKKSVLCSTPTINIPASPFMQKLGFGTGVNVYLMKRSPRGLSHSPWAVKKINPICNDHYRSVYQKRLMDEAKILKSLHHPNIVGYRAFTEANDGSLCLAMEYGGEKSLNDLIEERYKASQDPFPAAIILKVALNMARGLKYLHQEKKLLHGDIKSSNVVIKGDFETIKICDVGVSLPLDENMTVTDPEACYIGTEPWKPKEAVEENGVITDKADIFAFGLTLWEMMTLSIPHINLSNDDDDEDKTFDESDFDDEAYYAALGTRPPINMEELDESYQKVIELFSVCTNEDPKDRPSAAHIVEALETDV
UniProt Q9BU76: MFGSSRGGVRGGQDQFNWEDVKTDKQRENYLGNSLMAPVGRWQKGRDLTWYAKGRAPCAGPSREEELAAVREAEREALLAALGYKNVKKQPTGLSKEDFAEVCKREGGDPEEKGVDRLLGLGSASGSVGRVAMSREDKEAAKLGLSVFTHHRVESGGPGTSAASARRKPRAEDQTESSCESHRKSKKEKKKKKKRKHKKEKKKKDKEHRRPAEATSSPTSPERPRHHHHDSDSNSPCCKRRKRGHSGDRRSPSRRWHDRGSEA
UniProt Q9BTX1: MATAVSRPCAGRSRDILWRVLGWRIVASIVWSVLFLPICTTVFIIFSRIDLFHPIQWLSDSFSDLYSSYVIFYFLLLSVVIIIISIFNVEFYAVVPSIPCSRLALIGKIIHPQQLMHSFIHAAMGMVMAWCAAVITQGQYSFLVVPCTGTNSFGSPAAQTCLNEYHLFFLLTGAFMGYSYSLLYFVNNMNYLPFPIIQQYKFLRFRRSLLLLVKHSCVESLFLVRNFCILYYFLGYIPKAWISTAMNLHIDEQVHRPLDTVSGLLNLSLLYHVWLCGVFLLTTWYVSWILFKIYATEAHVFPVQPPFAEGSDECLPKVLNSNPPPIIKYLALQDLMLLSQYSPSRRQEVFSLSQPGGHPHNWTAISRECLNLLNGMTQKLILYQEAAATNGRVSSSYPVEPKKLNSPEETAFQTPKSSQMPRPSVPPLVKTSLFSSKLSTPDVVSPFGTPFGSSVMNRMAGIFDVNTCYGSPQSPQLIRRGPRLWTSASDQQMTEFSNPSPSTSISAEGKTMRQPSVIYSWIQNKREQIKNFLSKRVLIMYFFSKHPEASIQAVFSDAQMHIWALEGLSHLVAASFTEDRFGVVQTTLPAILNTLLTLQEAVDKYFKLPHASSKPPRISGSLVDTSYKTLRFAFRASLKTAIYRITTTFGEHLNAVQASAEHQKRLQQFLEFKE
UniProt Q9BYV9: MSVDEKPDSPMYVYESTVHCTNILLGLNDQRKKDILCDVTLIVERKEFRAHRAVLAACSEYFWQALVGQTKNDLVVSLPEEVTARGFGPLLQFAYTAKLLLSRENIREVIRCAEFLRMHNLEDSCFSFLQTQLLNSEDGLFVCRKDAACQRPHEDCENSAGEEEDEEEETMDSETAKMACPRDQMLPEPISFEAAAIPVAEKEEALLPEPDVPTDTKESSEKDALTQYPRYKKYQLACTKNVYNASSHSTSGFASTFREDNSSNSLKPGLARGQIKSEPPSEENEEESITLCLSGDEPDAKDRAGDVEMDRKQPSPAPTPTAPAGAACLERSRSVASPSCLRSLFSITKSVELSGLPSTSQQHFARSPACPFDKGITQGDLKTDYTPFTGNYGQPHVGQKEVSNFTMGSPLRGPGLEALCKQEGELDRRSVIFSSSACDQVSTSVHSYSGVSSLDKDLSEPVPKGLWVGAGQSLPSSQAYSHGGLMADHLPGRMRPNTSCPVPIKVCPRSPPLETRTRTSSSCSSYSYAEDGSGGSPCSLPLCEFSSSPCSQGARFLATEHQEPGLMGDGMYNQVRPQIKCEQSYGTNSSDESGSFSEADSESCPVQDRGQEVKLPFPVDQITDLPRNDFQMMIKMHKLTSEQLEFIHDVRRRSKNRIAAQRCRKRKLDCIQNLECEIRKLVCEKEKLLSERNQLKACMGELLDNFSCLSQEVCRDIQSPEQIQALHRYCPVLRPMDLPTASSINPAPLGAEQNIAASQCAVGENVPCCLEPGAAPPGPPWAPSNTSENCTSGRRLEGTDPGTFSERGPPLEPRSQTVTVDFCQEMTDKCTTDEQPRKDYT
UniProt Q99595: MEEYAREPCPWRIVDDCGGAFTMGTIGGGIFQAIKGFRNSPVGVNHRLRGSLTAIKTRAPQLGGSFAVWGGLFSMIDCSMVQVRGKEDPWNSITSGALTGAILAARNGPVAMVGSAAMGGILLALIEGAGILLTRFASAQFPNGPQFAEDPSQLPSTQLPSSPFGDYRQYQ

Target	NP40-soluble protein abundance (concentration: 0.1mM)	NP40-soluble protein abundance (concentration: 0.5mM)	NP40-soluble protein abundance (concentration: 1mM)	NP40-soluble protein abundance (concentration: 2mM)	NP40-soluble protein abundance (concentration: 4mM)	NP40-soluble protein abundance (concentration: 6mM)	NP40-soluble protein abundance (concentration: 8mM)	NP40-soluble protein abundance (concentration: 10mM)
UniProt Q99490-2	1 ± 0.18	0.983 ± 0.12	0.965 ± 0.14	0.96 ± 0.1	0.963 ± 0.12	0.938 ± 0.082	0.945 ± 0.15	0.926 ± 0.12
UniProt Q9BQC3 and related entries	1.07 ± 0.074	1.05 ± 0.054	0.974 ± 0.037	1.02 ± 0.078	1.08 ± 0.056	0.995 ± 0.079	1.03 ± 0.079	1.03 ± 0.12
UniProt Q9BUB5 and related entries	0.971 ± 0.094	1.04 ± 0.022	0.987 ± 0.052	0.972 ± 0.042	0.947 ± 0.087	0.968 ± 0.051	0.975 ± 0.13	0.964 ± 0.026
C1orf50 (UniProt Q9BV19)	0.989 ± 0.024	0.998 ± 0.061	1.02 ± 0.029	1.04 ± 0.087	0.968 ± 0.049	0.959 ± 0.084	1.02 ± 0.11	0.988 ± 0.04
UniProt Q9BRR9-2|Q9BRR9-4|Q9BRR9-5|R4GN15	1.05 ± 0.059	1.01 ± 0.035	1.03 ± 0.097	0.98 ± 0.044	0.99 ± 0.035	0.982 ± 0.044	1.02 ± 0.061	1.03 ± 0.094
UniProt Q9BW91 and related entries	0.985 ± 0.062	0.97 ± 0.09	0.995 ± 0.061	0.95 ± 0.099	0.982 ± 0.1	0.974 ± 0.083	0.993 ± 0.043	0.956 ± 0.05
ADO (UniProt Q96SZ5)	0.981 ± 0.018	0.94 ± 0.016	0.961 ± 0.051	0.951 ± 0.043	0.926 ± 0.075	0.91 ± 0.055	0.932 ± 0.088	0.959 ± 0.013
UniProt Q96MT7-2	1.09 ± 0.063	0.959 ± 0.033	1 ± 0.093	0.863 ± 0.12	0.869 ± 0.04	0.915 ± 0.14	0.834 ± 0.052	0.786 ± 0.082
GINS3 (UniProt Q9BRX5)	0.859 ± 0.039	0.839 ± 0.025	0.962 ± 0.036	0.9701 ± 0.0067	0.968 ± 0.026	0.945 ± 0.043	0.866 ± 0.097	0.981 ± 0.042
UniProt Q96K76 and related entries	1.005 ± 0.0046	1.01 ± 0.014	0.9726 ± 0.0042	0.948 ± 0.025	0.955 ± 0.038	0.949 ± 0.035	0.937 ± 0.016	0.911 ± 0.045
VPS25 (UniProt Q9BRG1)	0.994 ± 0.034	0.963 ± 0.036	0.96 ± 0.046	0.964 ± 0.057	0.957 ± 0.057	0.924 ± 0.03	0.859 ± 0.036	0.861 ± 0.061
UniProt Q9BXW7 and related entries	1.01 ± 0.049	1.01 ± 0.075	0.863 ± 0.06	0.917 ± 0.11	0.858 ± 0.06	0.86 ± 0.085	0.804 ± 0.051	0.85 ± 0.035
UniProt Q9BX67	1.04 ± 0.013	0.954 ± 0.065	0.965 ± 0.026	0.913 ± 0.066	0.905 ± 0.046	0.88 ± 0.086	0.953 ± 0.035	0.897 ± 0.06
THUMPD3 (UniProt Q9BV44)	1.01 ± 0.041	0.995 ± 0.016	0.963 ± 0.016	0.968 ± 0.05	0.955 ± 0.029	0.957 ± 0.067	0.959 ± 0.041	0.942 ± 0.07
UniProt Q96LT9 and related entries	1.26 ± 0.038	1.16 ± 0.16	1.42 ± 0.12	1.49 ± 0.3	1.61 ± 0.28	1.6 ± 0.35	1.72 ± 0.51	1.8 ± 0.54
RPRD1A (UniProt Q96P16)	0.96 ± 0.036	0.91 ± 0.057	1.01 ± 0.029	1.01 ± 0.047	1.04 ± 0.047	1.02 ± 0.021	0.962 ± 0.11	1.05 ± 0.02
UniProt Q9BXJ9 and related entries	1.03 ± 0.021	1.06 ± 0.018	0.972 ± 0.039	0.984 ± 0.026	0.982 ± 0.036	0.9782 ± 0.0082	0.955 ± 0.051	0.941 ± 0.065
UniProt Q96S19	1.07 ± 0.043	0.988 ± 0.012	0.954 ± 0.039	0.981 ± 0.079	0.952 ± 0.076	0.919 ± 0.081	0.917 ± 0.024	0.892 ± 0.052
UniProt Q96KB5 and related entries	0.976 ± 0.015	0.9865 ± 0.0065	0.92 ± 0.028	0.898 ± 0.044	0.881 ± 0.039	0.903 ± 0.045	0.868 ± 0.058	0.874 ± 0.072
UniProt Q9BU76 and related entries	1.14 ± 0.13	1.1 ± 0.068	1.09 ± 0.085	1.13 ± 0.077	1.14 ± 0.012	1.1 ± 0.049	1.25 ± 0.16	1.24 ± 0.11
UniProt Q9BQ15-2|Q9BQ15	1.01 ± 0.065	1.08 ± 0.28	1.12 ± 0.23	1.16 ± 0.36	1.14 ± 0.19	1.08 ± 0.25	1.16 ± 0.2	1.16 ± 0.27
UniProt Q99081 and related entries	0.99 ± 0.1	0.989 ± 0.086	0.96 ± 0.081	0.977 ± 0.1	0.954 ± 0.057	0.954 ± 0.033	0.983 ± 0.044	0.999 ± 0.084
UniProt Q9BTX1 and related entries	1.03 ± 0.081	0.982 ± 0.043	0.981 ± 0.078	1.03 ± 0.092	1 ± 0.086	1 ± 0.091	1.05 ± 0.041	1.04 ± 0.1
UniProt Q96T21 and related entries	1.14 ± 0.15	1.08 ± 0.089	0.979 ± 0.034	1.14 ± 0.086	1.01 ± 0.089	1.02 ± 0.058	1.15 ± 0.14	1.11 ± 0.2
UniProt Q9BXW9 and related entries	1.04 ± 0.036	1 ± 0.037	1 ± 0.029	1.04 ± 0.05	1.04 ± 0.055	0.971 ± 0.052	1.05 ± 0.045	0.993 ± 0.033
UniProt Q9BTA9 and related entries	0.976 ± 0.076	0.888 ± 0.018	1.06 ± 0.045	1.03 ± 0.026	1.07 ± 0.028	1.02 ± 0.0059	1.08 ± 0.066	1.07 ± 0.087
BACH2 (UniProt Q9BYV9)	1.02 ± 0.015	1.01 ± 0.12	1.1 ± 0.029	0.979 ± 0.073	1.06 ± 0.056	1.14 ± 0.14	1.02 ± 0.057	1.11 ± 0.014
TIMM17A (UniProt Q99595)	0.859 ± 0.014	0.88364 ± 5.3e-05	0.8359 ± 0.0039	0.85 ± 0.058	0.851 ± 0.064	0.869 ± 0.029	0.83 ± 0.087	0.882 ± 0.051
DSCC1 (UniProt Q9BVC3)	1.03 ± 0.071	1.06 ± 0.031	1.02 ± 0.019	1.05 ± 0.011	1.08 ± 0.037	1.05 ± 0.052	1.05 ± 0.027	1.04 ± 0.022
UniProt Q9BYG3	1.01 ± 0.018	1.04 ± 0.042	1.02 ± 0.046	1.07 ± 0.067	1.07 ± 0.071	1.12 ± 0.035	1.12 ± 0.061	1.18 ± 0.036

No new results follow: entries from further up.
Target	NP40-soluble protein abundance (concentration: 0.1mM)	NP40-soluble protein abundance (concentration: 0.5mM)	NP40-soluble protein abundance (concentration: 1mM)	NP40-soluble protein abundance (concentration: 2mM)	NP40-soluble protein abundance (concentration: 4mM)	NP40-soluble protein abundance (concentration: 6mM)	NP40-soluble protein abundance (concentration: 8mM)	NP40-soluble protein abundance (concentration: 10mM)
RPRD1A (UniProt Q96P16)	0.96 ± 0.036	0.91 ± 0.057	1.01 ± 0.029	1.01 ± 0.047	1.04 ± 0.047	1.02 ± 0.021	0.962 ± 0.11	1.05 ± 0.02
UniProt Q9BXJ9 and related entries	1.03 ± 0.021	1.06 ± 0.018	0.972 ± 0.039	0.984 ± 0.026	0.982 ± 0.036	0.9782 ± 0.0082	0.955 ± 0.051	0.941 ± 0.065

Source: the supplement of paper PMC6411743
